{"source": "patent US8124780B2", "about": "“Benzimidazole compound” (priority 2005, dated 2012)", "test_system": "gastric acid secretion", "type": "in vivo, dog", "details": "dose 1.6 mg/kg i.d., second day, 24 hours after administration, histamine i.v.", "note": "At least one read-out could not be matched to a standard name with certainty."}
{"smiles": "Cc1c(OCC2(C)OCCO2)ccnc1C[S+]([O-])c1nc2ccccc2[n-]1.[Na+]", "note": "(stereo not drawn) [Example 70, Sodium salt of an optical isomer of 2-(((3-methyl-4-((2-methyl-1,3-dioxolan-2-yl)methoxy)pyridin-2-yl)methyl)sulfinyl)-1H-benzimidazole]", "values": [{"measurement": "Persistency of inhibitory effect against gastric acid secretion (%)", "result": 64, "unit": "%"}]}
